According to the supplement of paper PMC6411743:
± gives the standard deviation of the averaged measurements. Only a part is listed here, and it is no random draw.

By UniProt entry, the sequences of proteins in these tests, tags left out. Where a name states a change or a piece, a line headed by the entry shows the natural chain unless it says otherwise.
UniProt P46736, whole entry: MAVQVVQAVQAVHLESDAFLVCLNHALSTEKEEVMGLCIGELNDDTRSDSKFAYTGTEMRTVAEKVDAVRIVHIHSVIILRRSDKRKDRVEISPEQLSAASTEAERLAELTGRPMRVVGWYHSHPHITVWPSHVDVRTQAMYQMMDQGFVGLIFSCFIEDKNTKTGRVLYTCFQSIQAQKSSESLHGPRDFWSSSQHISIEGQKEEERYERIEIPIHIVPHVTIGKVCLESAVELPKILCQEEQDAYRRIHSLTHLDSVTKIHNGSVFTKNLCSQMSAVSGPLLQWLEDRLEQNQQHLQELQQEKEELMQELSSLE
UniProt P51608, whole entry: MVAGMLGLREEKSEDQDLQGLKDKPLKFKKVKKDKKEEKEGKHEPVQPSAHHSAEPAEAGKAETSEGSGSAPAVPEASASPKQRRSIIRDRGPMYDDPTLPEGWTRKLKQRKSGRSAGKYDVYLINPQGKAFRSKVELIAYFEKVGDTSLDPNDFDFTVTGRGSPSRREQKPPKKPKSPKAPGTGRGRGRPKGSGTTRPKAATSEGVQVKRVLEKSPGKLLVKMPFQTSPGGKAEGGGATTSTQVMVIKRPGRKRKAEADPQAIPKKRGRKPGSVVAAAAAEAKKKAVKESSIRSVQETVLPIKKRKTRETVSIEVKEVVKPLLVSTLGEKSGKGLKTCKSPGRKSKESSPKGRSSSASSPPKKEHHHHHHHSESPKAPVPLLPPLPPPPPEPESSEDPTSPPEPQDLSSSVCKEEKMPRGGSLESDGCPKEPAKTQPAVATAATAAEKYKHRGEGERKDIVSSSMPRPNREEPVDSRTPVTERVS
UniProt P41162: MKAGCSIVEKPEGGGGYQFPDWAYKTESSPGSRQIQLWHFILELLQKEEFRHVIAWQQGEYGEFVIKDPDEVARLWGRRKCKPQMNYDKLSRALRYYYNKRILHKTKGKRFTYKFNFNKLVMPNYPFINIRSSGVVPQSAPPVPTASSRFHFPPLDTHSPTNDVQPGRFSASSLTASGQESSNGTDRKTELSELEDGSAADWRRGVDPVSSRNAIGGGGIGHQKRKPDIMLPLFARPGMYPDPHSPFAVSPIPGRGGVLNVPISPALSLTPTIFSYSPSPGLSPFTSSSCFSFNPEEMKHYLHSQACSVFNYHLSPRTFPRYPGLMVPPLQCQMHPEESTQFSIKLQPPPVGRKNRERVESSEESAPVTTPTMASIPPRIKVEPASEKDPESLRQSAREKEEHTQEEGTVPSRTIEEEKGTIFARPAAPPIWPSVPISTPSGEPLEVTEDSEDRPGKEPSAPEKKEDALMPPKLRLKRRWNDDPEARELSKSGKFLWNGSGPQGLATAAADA
UniProt P49720: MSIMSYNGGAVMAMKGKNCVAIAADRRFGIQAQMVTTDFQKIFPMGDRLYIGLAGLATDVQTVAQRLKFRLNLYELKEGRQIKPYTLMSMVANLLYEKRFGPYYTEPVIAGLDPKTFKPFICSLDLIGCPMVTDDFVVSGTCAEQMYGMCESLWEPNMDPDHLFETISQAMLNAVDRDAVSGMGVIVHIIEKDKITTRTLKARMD
UniProt P42226: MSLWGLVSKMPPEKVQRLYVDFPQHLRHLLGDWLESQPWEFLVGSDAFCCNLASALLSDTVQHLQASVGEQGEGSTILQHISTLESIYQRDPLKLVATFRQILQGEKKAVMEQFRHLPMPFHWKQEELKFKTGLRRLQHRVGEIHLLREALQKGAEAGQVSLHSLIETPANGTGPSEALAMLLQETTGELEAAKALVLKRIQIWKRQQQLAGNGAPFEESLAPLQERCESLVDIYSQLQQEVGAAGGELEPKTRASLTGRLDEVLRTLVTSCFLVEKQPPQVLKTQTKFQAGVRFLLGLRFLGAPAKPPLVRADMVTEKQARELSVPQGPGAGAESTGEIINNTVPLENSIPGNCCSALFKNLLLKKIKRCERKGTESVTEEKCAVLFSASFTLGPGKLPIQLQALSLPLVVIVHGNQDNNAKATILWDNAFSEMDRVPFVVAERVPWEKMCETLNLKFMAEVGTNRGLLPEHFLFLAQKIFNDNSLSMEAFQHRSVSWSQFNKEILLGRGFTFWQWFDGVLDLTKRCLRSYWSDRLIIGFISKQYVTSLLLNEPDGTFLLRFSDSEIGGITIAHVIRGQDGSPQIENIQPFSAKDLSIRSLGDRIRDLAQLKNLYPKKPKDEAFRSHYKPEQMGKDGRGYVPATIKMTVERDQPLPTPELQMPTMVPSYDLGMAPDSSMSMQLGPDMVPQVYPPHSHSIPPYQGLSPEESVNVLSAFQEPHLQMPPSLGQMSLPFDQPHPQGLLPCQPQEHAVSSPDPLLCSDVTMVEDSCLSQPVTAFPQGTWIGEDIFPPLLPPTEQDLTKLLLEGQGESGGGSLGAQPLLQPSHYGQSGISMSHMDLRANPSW
UniProt P49641: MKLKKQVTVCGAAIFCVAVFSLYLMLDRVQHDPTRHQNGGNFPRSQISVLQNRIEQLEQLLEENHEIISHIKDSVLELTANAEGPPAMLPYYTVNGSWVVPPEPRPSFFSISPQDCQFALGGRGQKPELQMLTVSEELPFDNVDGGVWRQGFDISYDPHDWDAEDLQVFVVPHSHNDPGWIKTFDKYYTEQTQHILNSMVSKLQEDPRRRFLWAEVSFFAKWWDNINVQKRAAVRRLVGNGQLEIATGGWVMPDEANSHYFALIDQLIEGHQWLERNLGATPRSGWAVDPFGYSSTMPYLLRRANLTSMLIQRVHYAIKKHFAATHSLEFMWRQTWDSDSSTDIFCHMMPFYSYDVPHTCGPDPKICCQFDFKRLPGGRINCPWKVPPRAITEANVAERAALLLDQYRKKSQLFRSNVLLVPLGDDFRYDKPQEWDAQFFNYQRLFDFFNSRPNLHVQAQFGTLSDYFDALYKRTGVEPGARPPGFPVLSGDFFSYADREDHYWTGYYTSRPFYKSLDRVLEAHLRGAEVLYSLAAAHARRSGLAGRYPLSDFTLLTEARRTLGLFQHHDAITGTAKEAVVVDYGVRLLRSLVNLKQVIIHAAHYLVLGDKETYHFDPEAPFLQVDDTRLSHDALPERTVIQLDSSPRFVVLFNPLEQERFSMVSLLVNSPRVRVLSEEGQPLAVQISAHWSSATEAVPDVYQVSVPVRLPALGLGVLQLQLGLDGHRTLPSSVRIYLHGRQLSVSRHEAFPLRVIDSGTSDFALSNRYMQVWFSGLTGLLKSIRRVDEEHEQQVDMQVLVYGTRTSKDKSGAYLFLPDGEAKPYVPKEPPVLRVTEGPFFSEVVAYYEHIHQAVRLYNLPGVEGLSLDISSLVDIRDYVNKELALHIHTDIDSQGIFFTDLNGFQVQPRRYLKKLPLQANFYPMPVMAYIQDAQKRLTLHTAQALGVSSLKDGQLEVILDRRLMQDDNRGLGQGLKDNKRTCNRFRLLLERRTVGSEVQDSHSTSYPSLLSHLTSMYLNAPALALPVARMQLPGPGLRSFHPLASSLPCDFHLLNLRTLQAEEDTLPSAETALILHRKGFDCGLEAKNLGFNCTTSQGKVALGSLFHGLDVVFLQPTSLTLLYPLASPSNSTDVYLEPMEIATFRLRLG
UniProt P46108: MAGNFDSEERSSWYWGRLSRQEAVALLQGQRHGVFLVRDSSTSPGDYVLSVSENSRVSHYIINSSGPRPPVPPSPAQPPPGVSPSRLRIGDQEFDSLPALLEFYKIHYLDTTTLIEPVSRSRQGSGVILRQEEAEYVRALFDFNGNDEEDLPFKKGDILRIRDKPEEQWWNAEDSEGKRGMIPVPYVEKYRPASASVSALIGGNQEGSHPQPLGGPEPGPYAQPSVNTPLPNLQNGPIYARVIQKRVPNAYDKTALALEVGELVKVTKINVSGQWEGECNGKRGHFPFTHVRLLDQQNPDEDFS
UniProt P46060: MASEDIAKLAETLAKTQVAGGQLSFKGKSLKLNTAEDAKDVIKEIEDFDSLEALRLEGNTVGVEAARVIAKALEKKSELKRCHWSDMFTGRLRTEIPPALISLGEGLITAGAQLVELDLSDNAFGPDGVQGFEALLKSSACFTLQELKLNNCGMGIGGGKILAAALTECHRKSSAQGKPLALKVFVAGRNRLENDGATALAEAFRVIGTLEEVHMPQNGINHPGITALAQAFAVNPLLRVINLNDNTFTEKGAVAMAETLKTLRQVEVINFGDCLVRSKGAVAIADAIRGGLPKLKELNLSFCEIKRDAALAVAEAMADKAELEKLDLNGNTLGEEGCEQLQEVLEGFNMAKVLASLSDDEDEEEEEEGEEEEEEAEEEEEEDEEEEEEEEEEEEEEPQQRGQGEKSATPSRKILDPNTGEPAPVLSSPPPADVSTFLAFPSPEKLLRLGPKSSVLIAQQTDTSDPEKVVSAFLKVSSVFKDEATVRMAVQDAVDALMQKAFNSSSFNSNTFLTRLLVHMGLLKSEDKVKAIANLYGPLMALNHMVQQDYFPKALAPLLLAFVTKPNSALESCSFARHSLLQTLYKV
UniProt P43490: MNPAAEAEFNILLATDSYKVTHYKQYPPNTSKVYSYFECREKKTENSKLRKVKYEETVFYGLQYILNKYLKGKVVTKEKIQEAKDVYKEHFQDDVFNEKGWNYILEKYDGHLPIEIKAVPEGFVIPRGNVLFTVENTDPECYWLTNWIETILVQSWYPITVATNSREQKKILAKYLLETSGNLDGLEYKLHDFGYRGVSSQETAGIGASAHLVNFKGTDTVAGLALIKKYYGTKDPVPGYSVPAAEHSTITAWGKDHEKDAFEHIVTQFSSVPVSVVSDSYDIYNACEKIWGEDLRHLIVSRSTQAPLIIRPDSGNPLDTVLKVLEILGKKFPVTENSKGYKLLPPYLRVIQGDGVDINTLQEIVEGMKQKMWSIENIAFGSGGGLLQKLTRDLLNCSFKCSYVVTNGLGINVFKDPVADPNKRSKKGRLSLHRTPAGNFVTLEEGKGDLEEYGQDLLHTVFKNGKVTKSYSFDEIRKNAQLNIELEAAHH
UniProt P37108: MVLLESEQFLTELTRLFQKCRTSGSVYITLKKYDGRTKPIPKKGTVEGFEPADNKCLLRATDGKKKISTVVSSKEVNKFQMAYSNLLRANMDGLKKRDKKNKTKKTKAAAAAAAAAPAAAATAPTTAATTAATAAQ
UniProt P51692: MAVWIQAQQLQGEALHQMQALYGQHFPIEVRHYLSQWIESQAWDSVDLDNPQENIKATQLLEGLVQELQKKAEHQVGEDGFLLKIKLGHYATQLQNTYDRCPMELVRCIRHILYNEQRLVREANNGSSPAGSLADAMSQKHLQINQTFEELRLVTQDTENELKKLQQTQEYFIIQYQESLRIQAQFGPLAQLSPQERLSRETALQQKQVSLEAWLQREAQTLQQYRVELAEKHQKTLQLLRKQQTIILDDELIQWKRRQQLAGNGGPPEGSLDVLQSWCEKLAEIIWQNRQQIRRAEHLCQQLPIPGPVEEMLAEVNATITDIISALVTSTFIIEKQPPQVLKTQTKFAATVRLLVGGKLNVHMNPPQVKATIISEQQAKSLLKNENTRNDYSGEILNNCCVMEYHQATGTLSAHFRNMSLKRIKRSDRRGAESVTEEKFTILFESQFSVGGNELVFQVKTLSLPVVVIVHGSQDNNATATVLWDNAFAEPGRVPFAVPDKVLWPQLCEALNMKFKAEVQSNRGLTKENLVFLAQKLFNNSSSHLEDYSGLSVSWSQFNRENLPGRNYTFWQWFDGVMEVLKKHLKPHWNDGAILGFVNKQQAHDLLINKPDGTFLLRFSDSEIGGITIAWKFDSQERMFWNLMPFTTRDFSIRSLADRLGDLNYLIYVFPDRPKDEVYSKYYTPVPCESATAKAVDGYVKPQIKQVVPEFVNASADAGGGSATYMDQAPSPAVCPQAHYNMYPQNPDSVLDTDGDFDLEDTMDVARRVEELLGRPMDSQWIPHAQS
UniProt P52758: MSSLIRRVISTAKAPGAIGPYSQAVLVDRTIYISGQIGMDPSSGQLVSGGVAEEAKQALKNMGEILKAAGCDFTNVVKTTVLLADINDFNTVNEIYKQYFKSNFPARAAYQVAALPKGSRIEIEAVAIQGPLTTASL
UniProt P48643, whole entry: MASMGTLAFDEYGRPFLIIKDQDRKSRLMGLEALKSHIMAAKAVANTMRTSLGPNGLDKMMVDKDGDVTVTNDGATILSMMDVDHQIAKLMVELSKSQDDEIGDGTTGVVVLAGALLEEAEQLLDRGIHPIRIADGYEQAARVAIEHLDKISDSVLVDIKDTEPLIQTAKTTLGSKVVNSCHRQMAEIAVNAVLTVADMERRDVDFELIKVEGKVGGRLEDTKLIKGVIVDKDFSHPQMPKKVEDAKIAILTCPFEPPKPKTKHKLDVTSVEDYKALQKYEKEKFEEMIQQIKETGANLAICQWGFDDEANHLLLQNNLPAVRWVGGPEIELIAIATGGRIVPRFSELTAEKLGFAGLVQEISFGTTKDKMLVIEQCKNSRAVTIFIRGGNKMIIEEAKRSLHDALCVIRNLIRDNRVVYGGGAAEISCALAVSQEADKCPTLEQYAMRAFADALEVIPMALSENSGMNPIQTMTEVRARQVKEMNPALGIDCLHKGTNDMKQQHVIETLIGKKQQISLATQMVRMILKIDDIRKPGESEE

Compound: Nc1ncnc2c1ncn2[C@@H]1O[C@H](COP(=O)(O)OP(=O)(O)OP(=O)(O)O)[C@@H](O)[C@H]1O [adenosine triphosphate]
Assay: NP40-soluble protein abundance relative to vehicle (solubility fold change) (ratio); higher = more soluble protein in presence of ATP
Outline: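 Jurkat crude lysate (Dounce-homogenised) was treated with eight concentrations from 0.1 to 10 mM for 10 min at room temperature, then 3 min at 37 °C. It was solubilised with 0.8% NP40 and benzonase (60 min, 4 °C) and ultracentrifuged, and the supernatant was TMT-labelled for LC-MS/MS. Intensities were vsn-normalised, and the value is the fold change against the NP40-processed vehicle per replicate, from three independent experiments.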

Target: UniProt P46736-2|P46736
- NP40-soluble protein abundance (concentration: 1mM): 1.03 ± 0.077
- NP40-soluble protein abundance (concentration: 2mM): 0.979 ± 0.027
- NP40-soluble protein abundance (concentration: 4mM): 0.995 ± 0.018
- NP40-soluble protein abundance (concentration: 6mM): 0.958 ± 0.078
- NP40-soluble protein abundance (concentration: 8mM): 0.998 ± 0.029
- NP40-soluble protein abundance (concentration: 10mM): 0.966 ± 0.021

Target: UniProt P51608-2
- NP40-soluble protein abundance (concentration: 1mM): 1.01 ± 0.061
- NP40-soluble protein abundance (concentration: 2mM): 1.03 ± 0.037
- NP40-soluble protein abundance (concentration: 4mM): 1.06 ± 0.03
- NP40-soluble protein abundance (concentration: 6mM): 1.11 ± 0.035
- NP40-soluble protein abundance (concentration: 8mM): 1.09 ± 0.032
- NP40-soluble protein abundance (concentration: 10mM): 1.13 ± 0.034

Target: ETV3 (UniProt P41162)
- NP40-soluble protein abundance (concentration: 1mM): 0.865 ± 0.099
- NP40-soluble protein abundance (concentration: 2mM): 0.953 ± 0.1
- NP40-soluble protein abundance (concentration: 4mM): 0.923 ± 0.062
- NP40-soluble protein abundance (concentration: 6mM): 1.06 ± 0.18
- NP40-soluble protein abundance (concentration: 8mM): 0.893 ± 0.017
- NP40-soluble protein abundance (concentration: 10mM): 1.007 ± 0.006

Target: UniProt P49768 and related entries
- NP40-soluble protein abundance (concentration: 1mM): 0.751 ± 0.082
- NP40-soluble protein abundance (concentration: 2mM): 0.784 ± 0.015
- NP40-soluble protein abundance (concentration: 4mM): 0.733 ± 0.041
- NP40-soluble protein abundance (concentration: 6mM): 0.737 ± 0.066
- NP40-soluble protein abundance (concentration: 8mM): 0.741 ± 0.038
- NP40-soluble protein abundance (concentration: 10mM): 0.834 ± 0.013

Target: UniProt P49720
- NP40-soluble protein abundance (concentration: 1mM): 0.83 ± 0.073
- NP40-soluble protein abundance (concentration: 2mM): 0.839 ± 0.091
- NP40-soluble protein abundance (concentration: 4mM): 0.839 ± 0.058
- NP40-soluble protein abundance (concentration: 6mM): 0.724 ± 0.051
- NP40-soluble protein abundance (concentration: 8mM): 0.854 ± 0.094
- NP40-soluble protein abundance (concentration: 10mM): 0.894 ± 0.081

Target: UniProt P49407-2|P49407
- NP40-soluble protein abundance (concentration: 1mM): 0.9921 ± 0.009
- NP40-soluble protein abundance (concentration: 2mM): 1.04 ± 0.022
- NP40-soluble protein abundance (concentration: 4mM): 1.01 ± 0.037
- NP40-soluble protein abundance (concentration: 6mM): 1 ± 0.037
- NP40-soluble protein abundance (concentration: 8mM): 0.969 ± 0.029
- NP40-soluble protein abundance (concentration: 10mM): 1.02 ± 0.026

Target: STAT6 (UniProt P42226)
- NP40-soluble protein abundance (concentration: 1mM): 0.983 ± 0.024
- NP40-soluble protein abundance (concentration: 2mM): 0.975 ± 0.013
- NP40-soluble protein abundance (concentration: 4mM): 0.952 ± 0.015
- NP40-soluble protein abundance (concentration: 6mM): 0.963 ± 0.048
- NP40-soluble protein abundance (concentration: 8mM): 0.9735 ± 0.0084
- NP40-soluble protein abundance (concentration: 10mM): 0.956 ± 0.023

Target: ACADSB (UniProt P45954)
- NP40-soluble protein abundance (concentration: 1mM): 1.03 ± 0.06
- NP40-soluble protein abundance (concentration: 2mM): 1.02 ± 0.035
- NP40-soluble protein abundance (concentration: 4mM): 1.02 ± 0.045
- NP40-soluble protein abundance (concentration: 6mM): 0.983 ± 0.043
- NP40-soluble protein abundance (concentration: 8mM): 1.03 ± 0.064
- NP40-soluble protein abundance (concentration: 10mM): 1.02 ± 0.058

Target: UniProt P49641 and related entries
- NP40-soluble protein abundance (concentration: 1mM): 0.976 ± 0.059
- NP40-soluble protein abundance (concentration: 2mM): 0.981 ± 0.048
- NP40-soluble protein abundance (concentration: 4mM): 0.959 ± 0.037
- NP40-soluble protein abundance (concentration: 6mM): 1 ± 0.12
- NP40-soluble protein abundance (concentration: 8mM): 0.974 ± 0.081
- NP40-soluble protein abundance (concentration: 10mM): 1.01 ± 0.055

Target: POLD2 (UniProt P49005)
- NP40-soluble protein abundance (concentration: 1mM): 1.04 ± 0.026
- NP40-soluble protein abundance (concentration: 2mM): 1.02 ± 0.057
- NP40-soluble protein abundance (concentration: 4mM): 1.03 ± 0.025
- NP40-soluble protein abundance (concentration: 6mM): 0.974 ± 0.056
- NP40-soluble protein abundance (concentration: 8mM): 1.05 ± 0.049
- NP40-soluble protein abundance (concentration: 10mM): 0.993 ± 0.056

Target: UniProt P46934-4
- NP40-soluble protein abundance (concentration: 1mM): 1.03 ± 0.064
- NP40-soluble protein abundance (concentration: 2mM): 1.05 ± 0.029
- NP40-soluble protein abundance (concentration: 4mM): 1.05 ± 0.046
- NP40-soluble protein abundance (concentration: 6mM): 0.997 ± 0.087
- NP40-soluble protein abundance (concentration: 8mM): 1.04 ± 0.051
- NP40-soluble protein abundance (concentration: 10mM): 1.03 ± 0.031

Target: UniProt P46108 and related entries
- NP40-soluble protein abundance (concentration: 1mM): 1.03 ± 0.038
- NP40-soluble protein abundance (concentration: 2mM): 1.005 ± 0.0089
- NP40-soluble protein abundance (concentration: 4mM): 1.04 ± 0.066
- NP40-soluble protein abundance (concentration: 6mM): 0.992 ± 0.036
- NP40-soluble protein abundance (concentration: 8mM): 1.02 ± 0.056
- NP40-soluble protein abundance (concentration: 10mM): 1.03 ± 0.072

Target: UniProt P49588 and related entries
- NP40-soluble protein abundance (concentration: 1mM): 1 ± 0.014
- NP40-soluble protein abundance (concentration: 2mM): 0.972 ± 0.029
- NP40-soluble protein abundance (concentration: 4mM): 0.953 ± 0.021
- NP40-soluble protein abundance (concentration: 6mM): 0.995 ± 0.044
- NP40-soluble protein abundance (concentration: 8mM): 0.965 ± 0.037
- NP40-soluble protein abundance (concentration: 10mM): 0.939 ± 0.042

Target: UniProt P50995 and related entries
- NP40-soluble protein abundance (concentration: 1mM): 0.984 ± 0.026
- NP40-soluble protein abundance (concentration: 2mM): 0.981 ± 0.025
- NP40-soluble protein abundance (concentration: 4mM): 0.9703 ± 0.0076
- NP40-soluble protein abundance (concentration: 6mM): 0.981 ± 0.025
- NP40-soluble protein abundance (concentration: 8mM): 0.941 ± 0.036
- NP40-soluble protein abundance (concentration: 10mM): 0.928 ± 0.052

Target: RANGAP1 (UniProt P46060)
- NP40-soluble protein abundance (concentration: 1mM): 0.9641 ± 0.0018
- NP40-soluble protein abundance (concentration: 2mM): 0.9669 ± 0.0037
- NP40-soluble protein abundance (concentration: 4mM): 0.951 ± 0.017
- NP40-soluble protein abundance (concentration: 6mM): 1.02 ± 0.022
- NP40-soluble protein abundance (concentration: 8mM): 0.964 ± 0.027
- NP40-soluble protein abundance (concentration: 10mM): 0.985 ± 0.033

Target: NAMPT (UniProt P43490)
- NP40-soluble protein abundance (concentration: 1mM): 1.03 ± 0.087
- NP40-soluble protein abundance (concentration: 2mM): 0.998 ± 0.072
- NP40-soluble protein abundance (concentration: 4mM): 0.979 ± 0.074
- NP40-soluble protein abundance (concentration: 6mM): 0.95 ± 0.13
- NP40-soluble protein abundance (concentration: 8mM): 0.992 ± 0.049
- NP40-soluble protein abundance (concentration: 10mM): 0.978 ± 0.068

Target: ADCY7 (UniProt P51828)
- NP40-soluble protein abundance (concentration: 1mM): 1.04 ± 0.043
- NP40-soluble protein abundance (concentration: 2mM): 1.05 ± 0.15
- NP40-soluble protein abundance (concentration: 4mM): 1.17 ± 0.11
- NP40-soluble protein abundance (concentration: 6mM): 1.11 ± 0.16
- NP40-soluble protein abundance (concentration: 8mM): 1.03 ± 0.096
- NP40-soluble protein abundance (concentration: 10mM): 1.08 ± 0.027

Target: SRP14 (UniProt P37108)
- NP40-soluble protein abundance (concentration: 1mM): 0.909 ± 0.061
- NP40-soluble protein abundance (concentration: 2mM): 0.912 ± 0.045
- NP40-soluble protein abundance (concentration: 4mM): 0.836 ± 0.015
- NP40-soluble protein abundance (concentration: 6mM): 0.966 ± 0.073
- NP40-soluble protein abundance (concentration: 8mM): 0.901 ± 0.014
- NP40-soluble protein abundance (concentration: 10mM): 0.842 ± 0.1

Target: UniProt P38117 and related entries
- NP40-soluble protein abundance (concentration: 1mM): 0.957 ± 0.038
- NP40-soluble protein abundance (concentration: 2mM): 0.947 ± 0.026
- NP40-soluble protein abundance (concentration: 4mM): 0.914 ± 0.042
- NP40-soluble protein abundance (concentration: 6mM): 0.964 ± 0.012
- NP40-soluble protein abundance (concentration: 8mM): 0.919 ± 0.018
- NP40-soluble protein abundance (concentration: 10mM): 0.9182 ± 0.0047

Target: PIK3CA (UniProt P42336)
- NP40-soluble protein abundance (concentration: 1mM): 1.07 ± 0.13
- NP40-soluble protein abundance (concentration: 2mM): 1.01 ± 0.13
- NP40-soluble protein abundance (concentration: 4mM): 1.01 ± 0.091
- NP40-soluble protein abundance (concentration: 6mM): 0.951 ± 0.14
- NP40-soluble protein abundance (concentration: 8mM): 1.04 ± 0.081
- NP40-soluble protein abundance (concentration: 10mM): 0.983 ± 0.071

Target: RECQL (UniProt P46063)
- NP40-soluble protein abundance (concentration: 1mM): 1.01 ± 0.12
- NP40-soluble protein abundance (concentration: 2mM): 1.01 ± 0.09
- NP40-soluble protein abundance (concentration: 4mM): 0.976 ± 0.075
- NP40-soluble protein abundance (concentration: 6mM): 0.939 ± 0.12
- NP40-soluble protein abundance (concentration: 8mM): 0.977 ± 0.044
- NP40-soluble protein abundance (concentration: 10mM): 0.993 ± 0.062

Target: STAT5B (UniProt P51692)
- NP40-soluble protein abundance (concentration: 1mM): 1.02 ± 0.046
- NP40-soluble protein abundance (concentration: 2mM): 0.993 ± 0.024
- NP40-soluble protein abundance (concentration: 4mM): 0.989 ± 0.027
- NP40-soluble protein abundance (concentration: 6mM): 0.955 ± 0.041
- NP40-soluble protein abundance (concentration: 8mM): 0.982 ± 0.022
- NP40-soluble protein abundance (concentration: 10mM): 1.01 ± 0.024

Target: UniProt P52758
- NP40-soluble protein abundance (concentration: 1mM): 0.912 ± 0.053
- NP40-soluble protein abundance (concentration: 2mM): 0.955 ± 0.029
- NP40-soluble protein abundance (concentration: 4mM): 0.929 ± 0.03
- NP40-soluble protein abundance (concentration: 6mM): 0.904 ± 0.072
- NP40-soluble protein abundance (concentration: 8mM): 0.896 ± 0.028
- NP40-soluble protein abundance (concentration: 10mM): 0.877 ± 0.076

Target: CCT5 (UniProt P48643)
- NP40-soluble protein abundance (concentration: 1mM): 1.02 ± 0.028
- NP40-soluble protein abundance (concentration: 2mM): 0.91 ± 0.028
- NP40-soluble protein abundance (concentration: 4mM): 0.83 ± 0.018
- NP40-soluble protein abundance (concentration: 6mM): 0.857 ± 0.12
- NP40-soluble protein abundance (concentration: 8mM): 0.871 ± 0.054
- NP40-soluble protein abundance (concentration: 10mM): 0.826 ± 0.051

Target: EIF2S3 (UniProt P41091)
- NP40-soluble protein abundance (concentration: 1mM): 1 ± 0.068
- NP40-soluble protein abundance (concentration: 2mM): 1.04 ± 0.058
- NP40-soluble protein abundance (concentration: 4mM): 1.03 ± 0.044
- NP40-soluble protein abundance (concentration: 6mM): 1.01 ± 0.1
- NP40-soluble protein abundance (concentration: 8mM): 0.9862 ± 0.0073
- NP40-soluble protein abundance (concentration: 10mM): 1.06 ± 0.064

Target: RPL14 (UniProt P50914)
- NP40-soluble protein abundance (concentration: 1mM): 0.895 ± 0.061
- NP40-soluble protein abundance (concentration: 2mM): 0.865 ± 0.097
- NP40-soluble protein abundance (concentration: 4mM): 0.805 ± 0.099
- NP40-soluble protein abundance (concentration: 6mM): 0.818 ± 0.14
- NP40-soluble protein abundance (concentration: 8mM): 0.497 ± 0.16
- NP40-soluble protein abundance (concentration: 10mM): 0.835 ± 0.1
